This is one part of the list.
Experiments:
Assay in all cases: log2 fold change, soluble protein after heating vs DMSO (PISA); higher = thermal stabilisation; K562 lysate, 10 uM; active = over 0.2 and 3.5 SD of the protein, either way, in both replicates (recomputed)
[1] = compound: C1=CC=C(C=C1)[C@H](COC2=CC3=C(C=C2)NC(=O)N3)NC(=O)C4=CC=CN(C4=O)CC5=CC(=C(C=C5)F)F
How it was run: (§1)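 Quantification was by TMTpro 16plex LC-MS/MS with equalised channel sums, applied to the supernatant after 21,000xg for 90 min. Samples were crude K562 extract at 1 mg/mL protein in PBS pH 7.4 with 1 mM MgCl2, treated with 10 μM compound for 30 min, heated for 3 min across 48°C-58°C, pooled and brought to 0.5% NP-40 at 4°C. Values are log-two fold changes in thermal stability relative to solvent controls, from duplicates.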

Chains of the proteins cited; added tags and fusions are not shown. Lines headed by an entry give the natural chain unless they say otherwise; changes in a name come on top.
UniProt Q96EP5: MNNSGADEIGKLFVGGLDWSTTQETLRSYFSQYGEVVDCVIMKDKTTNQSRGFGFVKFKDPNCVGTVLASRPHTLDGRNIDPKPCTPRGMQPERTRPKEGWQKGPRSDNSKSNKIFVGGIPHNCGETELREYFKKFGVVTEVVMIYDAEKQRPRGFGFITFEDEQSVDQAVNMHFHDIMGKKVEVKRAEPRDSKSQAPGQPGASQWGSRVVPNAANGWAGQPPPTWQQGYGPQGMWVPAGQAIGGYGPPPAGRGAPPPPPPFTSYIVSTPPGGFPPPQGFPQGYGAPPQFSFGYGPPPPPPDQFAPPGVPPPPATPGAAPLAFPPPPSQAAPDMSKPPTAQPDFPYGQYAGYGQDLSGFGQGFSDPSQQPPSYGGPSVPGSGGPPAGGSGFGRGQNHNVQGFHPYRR
UniProt O00571: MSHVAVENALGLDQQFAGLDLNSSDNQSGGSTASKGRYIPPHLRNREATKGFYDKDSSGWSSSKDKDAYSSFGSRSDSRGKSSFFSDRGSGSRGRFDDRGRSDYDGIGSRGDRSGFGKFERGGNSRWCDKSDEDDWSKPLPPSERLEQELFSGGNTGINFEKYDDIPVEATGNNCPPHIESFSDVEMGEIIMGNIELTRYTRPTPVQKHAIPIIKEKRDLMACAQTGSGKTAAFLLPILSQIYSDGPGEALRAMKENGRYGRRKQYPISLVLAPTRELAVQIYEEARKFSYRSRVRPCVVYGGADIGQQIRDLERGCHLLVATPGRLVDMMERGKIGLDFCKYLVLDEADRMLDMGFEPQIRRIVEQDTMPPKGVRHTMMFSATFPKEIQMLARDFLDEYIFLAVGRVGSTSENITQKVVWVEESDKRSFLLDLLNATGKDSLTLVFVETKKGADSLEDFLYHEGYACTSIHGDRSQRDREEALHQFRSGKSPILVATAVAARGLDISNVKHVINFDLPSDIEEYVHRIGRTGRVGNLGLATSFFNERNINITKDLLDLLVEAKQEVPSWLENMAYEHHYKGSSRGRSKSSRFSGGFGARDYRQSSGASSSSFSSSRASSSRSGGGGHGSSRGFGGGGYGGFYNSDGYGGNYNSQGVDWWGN
UniProt Q9UJV9: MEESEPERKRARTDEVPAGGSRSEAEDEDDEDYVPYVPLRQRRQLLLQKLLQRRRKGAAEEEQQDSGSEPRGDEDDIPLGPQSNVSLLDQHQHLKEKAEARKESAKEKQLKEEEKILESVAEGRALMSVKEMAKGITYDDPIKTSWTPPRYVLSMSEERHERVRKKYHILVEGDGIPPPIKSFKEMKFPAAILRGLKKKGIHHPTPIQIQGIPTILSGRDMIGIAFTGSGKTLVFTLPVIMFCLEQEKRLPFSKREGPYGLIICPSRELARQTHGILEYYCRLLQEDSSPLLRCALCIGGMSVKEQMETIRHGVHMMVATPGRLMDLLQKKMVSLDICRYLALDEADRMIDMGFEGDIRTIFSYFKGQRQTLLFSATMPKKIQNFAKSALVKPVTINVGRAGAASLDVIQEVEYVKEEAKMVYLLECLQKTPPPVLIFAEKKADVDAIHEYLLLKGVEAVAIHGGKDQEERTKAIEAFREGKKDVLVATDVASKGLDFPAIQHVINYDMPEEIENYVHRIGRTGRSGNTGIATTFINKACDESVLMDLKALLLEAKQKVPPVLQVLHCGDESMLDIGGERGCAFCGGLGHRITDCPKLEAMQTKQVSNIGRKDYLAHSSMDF
UniProt Q9NY93: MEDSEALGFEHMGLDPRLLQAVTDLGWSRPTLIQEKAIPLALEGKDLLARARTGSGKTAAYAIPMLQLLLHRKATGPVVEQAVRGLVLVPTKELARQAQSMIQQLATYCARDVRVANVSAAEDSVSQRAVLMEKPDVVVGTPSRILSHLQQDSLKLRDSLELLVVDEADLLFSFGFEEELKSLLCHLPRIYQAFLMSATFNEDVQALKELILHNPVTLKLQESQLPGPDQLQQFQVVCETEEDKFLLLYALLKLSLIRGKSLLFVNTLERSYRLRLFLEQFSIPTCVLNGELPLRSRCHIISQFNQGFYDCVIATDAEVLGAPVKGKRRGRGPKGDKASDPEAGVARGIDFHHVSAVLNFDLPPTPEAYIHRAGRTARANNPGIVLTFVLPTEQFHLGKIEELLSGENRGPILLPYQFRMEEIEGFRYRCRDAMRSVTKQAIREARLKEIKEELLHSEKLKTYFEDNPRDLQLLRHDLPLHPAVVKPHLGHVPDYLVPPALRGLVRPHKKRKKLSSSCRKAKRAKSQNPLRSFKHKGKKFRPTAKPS
UniProt Q9Y315: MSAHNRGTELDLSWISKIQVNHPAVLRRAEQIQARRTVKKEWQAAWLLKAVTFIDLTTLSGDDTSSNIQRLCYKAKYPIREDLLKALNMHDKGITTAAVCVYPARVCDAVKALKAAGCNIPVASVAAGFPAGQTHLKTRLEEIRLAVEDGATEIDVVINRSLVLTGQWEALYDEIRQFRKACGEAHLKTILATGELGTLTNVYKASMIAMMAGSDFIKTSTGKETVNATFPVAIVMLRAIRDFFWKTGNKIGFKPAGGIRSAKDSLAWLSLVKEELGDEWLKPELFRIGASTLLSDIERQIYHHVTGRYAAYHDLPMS
UniProt P27707: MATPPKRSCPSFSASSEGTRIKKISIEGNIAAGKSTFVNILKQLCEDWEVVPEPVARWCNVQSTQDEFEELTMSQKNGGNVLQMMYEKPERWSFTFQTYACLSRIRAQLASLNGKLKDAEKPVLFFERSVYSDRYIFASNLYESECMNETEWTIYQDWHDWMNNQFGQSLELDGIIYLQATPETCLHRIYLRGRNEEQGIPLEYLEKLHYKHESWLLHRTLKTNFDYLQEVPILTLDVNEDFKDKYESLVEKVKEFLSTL
UniProt O00399, whole entry, looked up: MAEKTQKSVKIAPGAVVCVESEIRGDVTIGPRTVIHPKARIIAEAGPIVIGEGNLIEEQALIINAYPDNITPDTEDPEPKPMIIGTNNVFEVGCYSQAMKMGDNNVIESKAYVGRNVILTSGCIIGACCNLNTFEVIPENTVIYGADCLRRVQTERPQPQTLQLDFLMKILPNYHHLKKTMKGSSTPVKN
UniProt Q9BUQ8: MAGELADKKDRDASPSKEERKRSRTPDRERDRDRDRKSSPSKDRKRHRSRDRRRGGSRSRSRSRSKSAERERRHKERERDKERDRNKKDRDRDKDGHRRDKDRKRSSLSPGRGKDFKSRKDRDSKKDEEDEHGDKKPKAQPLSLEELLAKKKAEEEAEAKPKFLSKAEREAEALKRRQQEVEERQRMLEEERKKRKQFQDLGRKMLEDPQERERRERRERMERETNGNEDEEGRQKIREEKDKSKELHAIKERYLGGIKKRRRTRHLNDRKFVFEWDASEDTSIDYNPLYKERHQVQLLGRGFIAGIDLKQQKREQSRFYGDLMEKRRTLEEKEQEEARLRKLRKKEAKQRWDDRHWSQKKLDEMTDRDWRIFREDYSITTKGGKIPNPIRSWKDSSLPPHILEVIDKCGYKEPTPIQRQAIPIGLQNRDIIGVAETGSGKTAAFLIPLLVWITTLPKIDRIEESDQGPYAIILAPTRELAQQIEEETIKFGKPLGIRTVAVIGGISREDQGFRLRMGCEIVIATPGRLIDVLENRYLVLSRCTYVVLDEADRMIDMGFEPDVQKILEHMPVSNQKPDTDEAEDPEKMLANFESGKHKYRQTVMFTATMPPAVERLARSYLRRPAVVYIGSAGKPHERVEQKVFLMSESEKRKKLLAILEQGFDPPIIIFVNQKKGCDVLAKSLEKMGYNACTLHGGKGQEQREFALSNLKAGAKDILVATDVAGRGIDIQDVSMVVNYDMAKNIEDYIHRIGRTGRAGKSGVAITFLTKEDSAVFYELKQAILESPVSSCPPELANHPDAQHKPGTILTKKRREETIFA
UniProt Q96GG9: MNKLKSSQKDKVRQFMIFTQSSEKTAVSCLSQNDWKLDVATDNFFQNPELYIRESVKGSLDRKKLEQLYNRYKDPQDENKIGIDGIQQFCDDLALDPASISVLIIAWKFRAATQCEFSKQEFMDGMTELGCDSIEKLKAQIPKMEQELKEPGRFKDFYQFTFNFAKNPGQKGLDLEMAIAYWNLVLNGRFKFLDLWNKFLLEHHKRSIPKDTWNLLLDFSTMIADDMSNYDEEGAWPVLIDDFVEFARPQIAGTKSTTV
UniProt Q7L014: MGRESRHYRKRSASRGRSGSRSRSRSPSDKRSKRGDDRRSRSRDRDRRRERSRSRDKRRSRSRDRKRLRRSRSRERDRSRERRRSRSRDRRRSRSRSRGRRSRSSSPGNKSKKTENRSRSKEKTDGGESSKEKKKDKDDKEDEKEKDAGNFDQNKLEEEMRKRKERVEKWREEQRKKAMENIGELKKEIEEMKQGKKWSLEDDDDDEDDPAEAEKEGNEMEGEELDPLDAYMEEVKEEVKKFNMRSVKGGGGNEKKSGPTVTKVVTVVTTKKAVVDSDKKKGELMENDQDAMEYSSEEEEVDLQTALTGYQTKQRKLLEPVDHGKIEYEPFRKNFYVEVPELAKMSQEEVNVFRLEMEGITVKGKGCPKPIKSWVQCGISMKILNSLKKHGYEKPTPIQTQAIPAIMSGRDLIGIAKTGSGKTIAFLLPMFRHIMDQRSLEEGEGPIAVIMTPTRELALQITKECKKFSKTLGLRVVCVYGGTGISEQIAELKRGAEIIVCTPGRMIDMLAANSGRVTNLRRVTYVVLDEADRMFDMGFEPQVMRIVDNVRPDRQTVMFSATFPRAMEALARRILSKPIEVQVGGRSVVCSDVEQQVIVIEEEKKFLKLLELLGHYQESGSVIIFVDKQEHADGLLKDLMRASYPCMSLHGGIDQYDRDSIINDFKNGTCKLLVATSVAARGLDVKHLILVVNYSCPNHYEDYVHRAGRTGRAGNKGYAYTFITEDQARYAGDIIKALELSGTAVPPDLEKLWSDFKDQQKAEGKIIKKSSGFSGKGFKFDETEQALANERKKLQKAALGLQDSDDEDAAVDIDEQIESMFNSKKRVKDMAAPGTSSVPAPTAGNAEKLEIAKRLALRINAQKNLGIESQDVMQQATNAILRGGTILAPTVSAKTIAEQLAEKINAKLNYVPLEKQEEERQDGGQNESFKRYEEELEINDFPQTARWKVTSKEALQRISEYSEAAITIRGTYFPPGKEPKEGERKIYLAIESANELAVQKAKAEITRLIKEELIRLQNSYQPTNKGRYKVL
UniProt Q8WV16: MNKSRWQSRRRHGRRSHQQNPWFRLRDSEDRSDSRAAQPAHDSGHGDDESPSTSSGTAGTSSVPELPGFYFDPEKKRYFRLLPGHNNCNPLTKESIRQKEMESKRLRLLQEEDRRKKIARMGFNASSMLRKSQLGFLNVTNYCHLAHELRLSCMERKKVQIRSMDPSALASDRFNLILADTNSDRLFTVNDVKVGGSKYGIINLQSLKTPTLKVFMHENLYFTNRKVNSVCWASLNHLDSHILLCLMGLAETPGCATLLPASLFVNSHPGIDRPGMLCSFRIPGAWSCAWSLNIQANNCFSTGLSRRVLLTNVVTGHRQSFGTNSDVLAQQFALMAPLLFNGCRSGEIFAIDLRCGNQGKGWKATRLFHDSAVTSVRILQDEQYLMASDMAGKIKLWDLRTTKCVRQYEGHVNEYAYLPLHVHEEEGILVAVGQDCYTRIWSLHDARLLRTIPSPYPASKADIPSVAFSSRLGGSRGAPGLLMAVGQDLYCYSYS
UniProt Q96QD5: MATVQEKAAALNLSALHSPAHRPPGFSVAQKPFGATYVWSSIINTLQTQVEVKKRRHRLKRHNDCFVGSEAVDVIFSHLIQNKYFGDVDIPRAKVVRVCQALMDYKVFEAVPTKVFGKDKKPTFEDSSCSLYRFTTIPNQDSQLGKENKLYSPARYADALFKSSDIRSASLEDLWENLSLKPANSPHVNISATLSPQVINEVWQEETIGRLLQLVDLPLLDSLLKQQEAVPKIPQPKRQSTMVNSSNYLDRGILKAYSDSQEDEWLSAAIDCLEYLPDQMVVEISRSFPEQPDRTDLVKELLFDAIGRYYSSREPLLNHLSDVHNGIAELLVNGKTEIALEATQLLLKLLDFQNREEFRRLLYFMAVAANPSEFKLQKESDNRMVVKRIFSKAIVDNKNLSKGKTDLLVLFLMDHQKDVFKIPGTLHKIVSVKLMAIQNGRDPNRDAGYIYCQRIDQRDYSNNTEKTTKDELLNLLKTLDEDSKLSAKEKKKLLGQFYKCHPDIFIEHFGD
UniProt Q9UJU6: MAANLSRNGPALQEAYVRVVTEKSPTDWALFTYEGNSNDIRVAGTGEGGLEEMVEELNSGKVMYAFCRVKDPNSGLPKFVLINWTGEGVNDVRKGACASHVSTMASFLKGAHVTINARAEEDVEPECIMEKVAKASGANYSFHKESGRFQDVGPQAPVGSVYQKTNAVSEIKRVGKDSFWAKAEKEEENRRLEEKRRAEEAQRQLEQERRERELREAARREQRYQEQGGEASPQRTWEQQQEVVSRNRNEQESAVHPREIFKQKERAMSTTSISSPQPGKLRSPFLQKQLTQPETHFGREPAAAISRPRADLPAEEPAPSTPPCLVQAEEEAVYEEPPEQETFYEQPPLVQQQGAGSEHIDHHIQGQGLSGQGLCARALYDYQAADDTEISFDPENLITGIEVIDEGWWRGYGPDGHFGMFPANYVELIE

[2] = compound: CC1=C(SC2=C1C(=N[C@H](C3=NN=C(N32)C)CC(=O)N)C4=CC=C(C=C4)Cl)C
How it was run: as §1

[3] = compound: CC1=C2C(=CC=C1)N=C(N(C2=O)C3=CC=CC=C3C)CN4C=NC5=C(N=CN=C54)N
How it was run: as §1

[4] = compound: Cc1sc2c(c1C)C(c1ccc(Cl)cc1)=N[C@@H](CC(=O)OC(C)(C)C)c1nnc(C)n1-2
How it was run: as §1

[5] = compound: c1ccc([C@@H]2C[C@H]2NC2CCNCC2)cc1
How it was run: as §1

Measured: log2 fold change

DAZAP1 (UniProt Q96EP5)
inactive: [1] 0.011 | [2] -0.046 | [3] 0.005 | [4] 0.088 | [5] -0.086

DDX3X (UniProt O00571)
inactive: [1] 0.004 | [2] -0.034 | [3] 0.148 | [4] -0.021 | [5] 0.004

DDX41 (UniProt Q9UJV9)
inactive: [1] 0.013 | [2] -0.042 | [3] -0.025 | [4] 0.01 | [5] -0.001

DDX56 (UniProt Q9NY93)
inactive: [1] -0.028 | [2] 0.021 | [3] 0.041 | [4] -0.002 | [5] 0.048

DERA (UniProt Q9Y315)
inactive: [1] 0.025 | [2] 0.012 | [3] -0.051 | [4] 0.061 | [5] 0.209

DCK (UniProt P27707)
inactive: [1] 0.033 | [2] -0.006 | [3] -0.008 | [4] -0.015 | [5] 0.046

DCTN6 (UniProt O00399)
inactive: [1] -0.063 | [2] 0.012 | [3] -0.023 | [4] 0.004 | [5] 0.024

DDX23 (UniProt Q9BUQ8)
inactive: [1] -0.027 | [2] 0.01 | [3] -0.013 | [4] 0.016 | [5] 0.018

Reprinted from the results shown (2 entries):
DERA (UniProt Q9Y315)
inactive: [1] 0.025 | [2] 0.012 | [3] -0.051 | [4] 0.061 | [5] 0.209

DCK (UniProt P27707)
inactive: [1] 0.033 | [2] -0.006 | [3] -0.008 | [4] -0.015 | [5] 0.046

Remaining list, next part.

DCUN1D1 (UniProt Q96GG9)
inactive: [1] -0.01 | [2] 0.021 | [3] 0.017 | [4] 0.05 | [5] -0.017

DDX46 (UniProt Q7L014)
inactive: [1] 0.018 | [2] -0.018 | [3] 0.014 | [4] 0.021 | [5] 0.012

DCAF4 (UniProt Q8WV16)
inactive: [1] -0.178 | [2] -0.097 | [4] -0.278 | [5] -0.046

DEPDC7 (UniProt Q96QD5)
inactive: [5] 0.066

DBNL (UniProt Q9UJU6)
inactive: [1] 0.111 | [2] 0.041 | [4] 0.305 | [5] 0.075
